{"source": "PubChem BioAssay AID686937 | Drosophila RNAi Screening Center | 2013", "test": "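Genes in the fly needed for secretion of protein constitutively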 (primary screen)", "system": "Drosophila S2 cells expressing secreted horseradish peroxidase", "reagents": "long dsRNA against Drosophila genes", "timing": "about 5.5 days (5 days dsRNA, then 12 h reporter induction)", "challenge": "reporter expression induced after 5 days of dsRNA, read 12 h later; inducer not stated", "measured": "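After 5 days of dsRNA and 12 h of reporter induction, medium peroxidase read by chemiluminescence and scored as per-plate z-score; higher values mean more reporter released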", "direction": "z-score: higher = more reporter secreted into medium", "note": "In all, the deposit lists about 23,000 reagents; shown is an unselected part of those that have a named target and a result. 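Reduced-secretion tags in replicate 1 do not always agree with the z-scores; no criterion for assigning the tags was given.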 The numbers tell different reagents against one gene apart. A plus sign joins genes that one reagent is predicted to hit. Not all columns of the deposit are shown. The record does not give: the amount of reagent."}
{"gene": "Nup160 + RfC38", "reagent": 1, "z-score, replicate 1": 0.32}
{"gene": "bgcn", "reagent": 1, "z-score, replicate 1": 0.3}
{"gene": "bgcn", "reagent": 2, "z-score, replicate 1": 0.22}
{"gene": "uex", "reagent": 1, "z-score, replicate 1": 0.09}
{"gene": "uex", "reagent": 2, "z-score, replicate 1": -0.21}
{"gene": "CG31207", "reagent": 1, "z-score, replicate 1": 0.44}
{"gene": "CG8677 + CG31626", "reagent": 1, "z-score, replicate 1": 0.36}
{"gene": "Nepl6", "reagent": 1, "z-score, replicate 1": 0.84}
{"gene": "lin-28", "reagent": 1, "z-score, replicate 1": -0.01}
{"gene": "JYalpha (retired record) + JYalpha", "reagent": 1, "z-score, replicate 1": -0.41}
{"gene": "DCTN6-p27", "reagent": 1, "z-score, replicate 1": 0.08}
{"gene": "DCTN6-p27", "reagent": 2, "z-score, replicate 1": -0.08}
{"gene": "CG18622", "reagent": 1, "z-score, replicate 1": -0.2}
{"gene": "CG14546", "reagent": 1, "z-score, replicate 1": 0.12}
{"gene": "CG9119", "reagent": 1, "z-score, replicate 1": -4.92}
{"gene": "ebd1", "reagent": 1, "z-score, replicate 1": -0.18}

Reprinted from the entries so far (2 entries):
{"gene": "CG14546", "reagent": 1, "z-score, replicate 1": 0.12}
{"gene": "CG9119", "reagent": 1, "z-score, replicate 1": -4.92}
